Assay results from doi:10.1101/2023.05.09.540094.
Results are given in words; binding and its absence hold for the method and conditions named. Some results given as binding are weak or reduced against the parent protein; the word gives no strength.

Protein sequences, listed by entry. Tags and fused reporters are not part of them.
UniProt P35998: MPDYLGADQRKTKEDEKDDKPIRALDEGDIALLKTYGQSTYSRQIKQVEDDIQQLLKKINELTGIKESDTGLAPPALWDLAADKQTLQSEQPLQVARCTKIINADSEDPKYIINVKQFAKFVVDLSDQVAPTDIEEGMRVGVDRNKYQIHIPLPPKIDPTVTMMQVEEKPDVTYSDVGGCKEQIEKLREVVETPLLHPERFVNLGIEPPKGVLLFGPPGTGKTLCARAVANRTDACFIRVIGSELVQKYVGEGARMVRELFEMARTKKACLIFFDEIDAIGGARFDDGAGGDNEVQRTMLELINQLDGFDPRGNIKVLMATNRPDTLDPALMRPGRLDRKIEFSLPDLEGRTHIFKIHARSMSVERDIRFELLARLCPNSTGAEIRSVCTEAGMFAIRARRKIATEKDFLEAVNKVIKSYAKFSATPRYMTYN
UniProt P17980: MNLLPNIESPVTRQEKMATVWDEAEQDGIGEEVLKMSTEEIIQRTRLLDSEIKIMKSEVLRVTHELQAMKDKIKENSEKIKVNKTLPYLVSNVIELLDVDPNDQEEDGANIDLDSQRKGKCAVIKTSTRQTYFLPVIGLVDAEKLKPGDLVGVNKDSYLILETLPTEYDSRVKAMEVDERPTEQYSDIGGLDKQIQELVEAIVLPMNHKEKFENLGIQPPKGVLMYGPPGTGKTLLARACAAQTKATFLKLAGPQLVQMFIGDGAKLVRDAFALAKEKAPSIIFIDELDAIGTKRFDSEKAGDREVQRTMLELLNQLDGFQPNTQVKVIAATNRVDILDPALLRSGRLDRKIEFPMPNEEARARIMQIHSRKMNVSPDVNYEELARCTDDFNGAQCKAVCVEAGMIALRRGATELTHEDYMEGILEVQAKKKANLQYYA
UniProt Q13200: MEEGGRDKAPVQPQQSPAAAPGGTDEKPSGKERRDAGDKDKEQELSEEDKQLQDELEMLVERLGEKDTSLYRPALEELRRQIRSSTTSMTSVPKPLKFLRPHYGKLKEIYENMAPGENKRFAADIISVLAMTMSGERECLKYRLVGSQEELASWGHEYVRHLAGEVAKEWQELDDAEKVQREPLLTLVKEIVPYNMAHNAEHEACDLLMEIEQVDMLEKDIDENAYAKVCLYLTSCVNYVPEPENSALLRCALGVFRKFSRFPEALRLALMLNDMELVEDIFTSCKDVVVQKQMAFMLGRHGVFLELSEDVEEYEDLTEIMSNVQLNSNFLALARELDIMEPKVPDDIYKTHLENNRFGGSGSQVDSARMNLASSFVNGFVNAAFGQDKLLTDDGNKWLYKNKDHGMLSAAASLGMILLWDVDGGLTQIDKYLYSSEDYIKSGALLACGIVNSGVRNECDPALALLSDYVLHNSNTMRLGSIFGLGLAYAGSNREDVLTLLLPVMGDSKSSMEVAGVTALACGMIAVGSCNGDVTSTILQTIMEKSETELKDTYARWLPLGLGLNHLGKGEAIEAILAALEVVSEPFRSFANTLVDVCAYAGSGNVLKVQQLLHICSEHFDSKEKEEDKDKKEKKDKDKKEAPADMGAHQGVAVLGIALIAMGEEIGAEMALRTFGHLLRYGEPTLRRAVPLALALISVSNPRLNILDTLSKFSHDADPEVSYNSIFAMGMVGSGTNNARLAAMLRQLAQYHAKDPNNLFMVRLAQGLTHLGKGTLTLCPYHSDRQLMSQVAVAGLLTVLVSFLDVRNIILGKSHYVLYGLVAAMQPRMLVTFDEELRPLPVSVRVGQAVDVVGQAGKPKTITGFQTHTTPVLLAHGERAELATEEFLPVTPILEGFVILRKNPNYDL
UniProt P25788: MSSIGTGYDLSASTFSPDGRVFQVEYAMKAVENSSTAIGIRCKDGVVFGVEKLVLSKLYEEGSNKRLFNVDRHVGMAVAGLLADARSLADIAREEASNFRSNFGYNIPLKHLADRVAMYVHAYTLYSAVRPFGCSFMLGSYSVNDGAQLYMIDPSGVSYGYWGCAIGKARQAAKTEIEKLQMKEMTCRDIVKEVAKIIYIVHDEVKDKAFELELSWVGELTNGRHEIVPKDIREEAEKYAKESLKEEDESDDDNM

Key:
[1] = target: Rpt1 ATPase subunit of the human 26S proteasome (human (endogenous in HEK293)) (UniProt P35998); assay: cryo-EM structure
[2] = target: Rpt5 ATPase subunit of the human 26S proteasome (human (endogenous in HEK293)) (UniProt P17980); assay: cryo-EM structure
[3] = target: Rpn1 non-ATPase subunit of the human 26S proteasome (human (endogenous in HEK293)) (UniProt Q13200); assay: cryo-EM structure
[4] = target: Rpt5 ATPase subunit of the human 26S proteasome (human (endogenous in HEK293)) (UniProt P17980); assay: cross-linking
[5] = substrate: CP subunit α7 of the human 26S proteasome (human (endogenous in HEK293)) (UniProt P25788); assay: cryo-EM structure

Measured: binding

B1: ZFAND5/ZNF216, recombinant wild type (protein, UniProt O76080 1-213)
chain: MAQETNQTPGPMLCSTGCGFYGNPRTNGMCSVCYKEHLQRQQNSGRMSPMGTASGSNSPTSDSASVQRADTSLNNCEGAAGSTSEKSRNVPVAALPVTQQMTEMSISREDKITTPKTEVSEPVVTQPSPSVSQPSTSQSEEKAPELPKPKKNRCFMCRKKVGLTGFDCRCGNLFCGLHRYSDKHNCPYDYKAEAAAKIRKENPVVVAEKIQRI
binds: all assays above
